According to patent US20260248969A1, “PEPTIDE MULTIMER PRODUCTS AND METHODS” (REGENTS OF THE UNIVERSITY OF MICHIGAN, priority 2023, published 2026):

System: human liver specimens
Experiment: Multimer staining of human liver specimens ex vivo (tissue microarray), fluorescence intensity and ROC
Experimental: Binding of Cy5.5-labeled peptide multimer was evaluated using human HCC specimens ex vivo. All experiments using human tissues were approved by the Michigan Medicine IRB (HUM00122873). A tissue microarray (TMA) was generated from n=120 liver specimens provided by the archived tissue bank in the Department of Pathology. Paraffin-embedded (FFPE) section slide was deparaffinized and conducted through antigen retrieval. Blocking procedure was performed with 5% goat serum for 1 hour at room temperature. The slide was first stained with the Cy5.5 labeled peptide multimer at 5 μM for 5 min at room temperature. The section was then incubated with primary antibodies using 1:200 dilution of primary recombinant rabbit anti-GPC3 antibody (#ab95363, Abcam), 1:500 dilution of primary recombinant mouse anti-CD44 antibody (#3570, Cell Signaling Technology), and AF594-labeled primary anti-EpCAM (#7319, Cell Signaling Technology) overnight at 4° C. After washing with 2% BSA in PBST, section was incubated with 1:500 dilution of AF488-labeled secondary goat anti-mouse IgG antibody (#ab150113, Abcam) and 1:500 dilution of AF532-labeled secondary goat anti-rabbit IgG antibody (#A-11029, Life Technologies) for 1 hour at room temperature, and mounted with Prolong Gold reagent containing DAPI at last (Invitrogen). The fluorescence images were collected using Leica Stellaris 5 (inverted), excitation at Aex=670 nm for the peptide multimer, and λex=488, 532, 594 nm for CD44, GPC3 and EpCAM antibody, respectively. Fluorescence intensities were quantified using Leica LAS AF Lite software. All slides were evaluated by an expert liver pathologist.

[1] = distinguish HCC from non-HCC (cirrhosis, adenoma, and normal)

## Cy5.5-labeled peptide multimer: peptide multimer of GPC3-, CD44- and EpCAM-specific peptides labeled with Cy5.5 (peptide 1 ALLANHEELFQT; peptide 2 WKGWSYLWTQQA; peptide 3 HPDMFTRTHSHN; left off: things letters cannot carry; small tags and cut ends)
Distinguish HCC from cirrhosis
  AUC (ROC): 0.89
  sensitivity (ROC): 87%
  specificity (ROC): 80%
[1]
  AUC (ROC): 0.90
  sensitivity (ROC): 90%
  specificity (ROC): 80%
